In PubChem BioAssay AID2685 (National Center for Advancing Translational Sciences (NCATS), 2010) one finds cell number change and AC50 data, which are given here for 61 molecules.

The nature of the test: qHTS Assay for Lipid Storage Modulators in Drosophila S3 Cells.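 As to cell number change: cells counted by Cell Tracker Red CMTPX staining in the red channel.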 The following applies: BODIPY lipid droplet fluorescence, 18-24 h; for cell number change: measured here: cell count max response, cells fed with added oleic acid. In outline: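 Drosophila S3 cells got compounds at several concentrations plus oleic acid (400 uM solution). Laser-scanning cytometry with 488 nm excitation read lipid droplets at 500-530 nm and cells at 575-640 nm. Percent activity was relative to 20 uM Triacsin C.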

Setting [1] is: measured here: cell number channel AC50, cells fed with added oleic acid.
Setting [2] is: measured here: lipid fluorescence (Fed channel) AC50, cells fed with added oleic acid.

The other results are listed elsewhere or left out. Further columns of the screen follow, without active or inactive calls. The list favours compounds with an active or inconclusive main result. The note in brackets gives the kind of curve behind each potency; many fits are weak.

With `COC(=O)c1ccc(CN(c2ccccc2Cl)S(C)(=O)=O)cc1`, the cell number change was 34.4%. Besides, under setting [1], the half-maximal activity concentration (AC50) is 6.51 µM [rising, single point].

Turning to `CCOC(=O)c1csc(NC(=O)c2ccc(OCC)cc2)n1`, the cell number change worked out at 58%. In addition, the AC50 under setting [1] was 0.116 µM [rising, full curve, poor fit].

On to `COc1ccccc1C(=O)NCC(=O)OCC(=O)c1cccc2ccccc12`, for which the cell number change turned out to be 6.02%.

Consider `CC(Cn1cncn1)C(=O)N1CCN(S(=O)(=O)c2ccccc2)CC1` (stereo not drawn), for which the cell number change was -3.85%.

With `CCOC(=O)c1cnc(-c2ccccc2)nc1Oc1cccc(Cl)c1`, the cell number change amounted to 13.8%. Further, the half-maximal activity concentration (AC50) under setting [2] was 14.6 µM [rising, partial curve].

Consider `COc1ccc(C(=O)NNC(=O)CSc2nnc(C(C)C)n2C)cc1`, for which the cell number change stood at 21.7%. Besides, the AC50 under setting [2] was 0.116 µM [rising, single point].

With `COc1cccc(OC)c1C(=O)NNS(=O)(=O)c1ccc2ccccc2c1`, the cell number change is 8.5%. Moreover, the AC50 under setting [2] was 23.1 µM [falling, single point].

On to `CCOc1ccccc1N1CN(Cc2ccccc2)CNC1=S`, for which the cell number change was -19.5%. Further, the half-maximal activity concentration (AC50) under setting [2] was 6.51 µM [rising, single point].

Consider `CCOc1ccc(S(=O)(=O)N2CCC(C(=O)NCc3cccnc3)CC2)cc1`, for which the cell number change is 35.5%.

For the molecule `O=C(COC(=O)CNC(=O)c1ccccc1F)Nc1ccc2c(c1)OCO2`, the cell number change came out at 4.78%.

As for `COc1cccc(C(=O)Nc2c(C(N)=O)oc3ccccc23)c1`, the concentration at half-maximal activity (AC50) under setting [1] is 1.64 µM [rising, partial curve].

Turning to `CC(=O)Nc1ccc(C(=O)OCC(=O)NC2CCCCCCC2)cc1`, the cell number change was found to be 24.1%. Besides, the AC50 under setting [1] was 0.0231 µM [rising, full curve, poor fit]. Under setting [2], the AC50 is 2.59 µM [rising, full curve, poor fit].

For the molecule `COC(=O)C(O)(CC(=O)Nc1ccc(OC(F)(F)F)cc1)C(F)(F)F` (stereo not drawn), the cell number change was -23.6%. Also, the AC50 under setting [2] was 0.116 µM [falling, full curve, poor fit].

In the case of `CCOc1ccc(-n2c(-c3ccccc3)c[n+]3c2CCCCC3)cc1`, the cell number change is -49%. In addition, the AC50 under setting [1] was 8.2 µM [falling, partial curve]. The concentration at half-maximal activity (AC50) under setting [2] was 6.51 µM [falling, full curve].

Consider `O=C(NS(=O)(=O)Oc1ccc(Cl)cc1)OC[C@@H]1CCCN2CCCC[C@H]12`, for which the cell number change is -12.5%. Besides, the AC50 under setting [1] was 0.651 µM [rising, full curve]. In addition, the AC50 under setting [2] is 1.03 µM [rising, partial curve].

Consider `CCOc1ccc(C(=O)NCC(=O)Nc2ccncc2)cc1OCC`, for which the cell number change is -17.5%. Further, the AC50 under setting [2] was 0.146 µM [rising, full curve, poor fit].

`Cc1cc(F)ccc1NC(=O)C1CCCO1` (stereo not drawn): the cell number change is -38.7%.

Turning to `O=C(Nc1ccccc1)c1cccc(N2C(=O)C3C4C=CC(C4)C3C2=O)c1` (stereo not drawn), the cell number change is 13.8%. In addition, the concentration at half-maximal activity (AC50) under setting [1] was 5.8 µM [rising, partial curve, poor fit]. Further, the half-maximal activity concentration (AC50) under setting [2] is 7.31 µM [falling, single point].

As for `CC1C(=O)N(Cc2ccc(F)cc2)c2ccccc2N1C(=O)c1c(F)cccc1F` (stereo not drawn), the cell number change was -18.9%. Also, the concentration at half-maximal activity (AC50) under setting [2] is 29.1 µM [falling, single point].

Take `COC(=O)[C@@H]1C[C@@]2(O)[C@@H](O)[C@@H](O)[C@@H](O)C[C@H]2N1CC1CCCCC1`: the cell number change was found to be 12.6%. The AC50 under setting [2] is 0.461 µM [rising, full curve].

Regarding `COCCN(Cc1cc2cc(C)ccc2nc1Cl)C(=O)Nc1ccccc1C`, the cell number change worked out at 19.1%.

Turning to `O=C(CN1C(=O)NC2(CCCCCC2)C1=O)N1CCN(c2ccc(F)cc2)CC1`, the cell number change is -7.52%.

For the molecule `O=C(/C=C/c1ccc(F)cc1)N1CCN(c2ccccn2)CC1`, the cell number change was 12.1%. The AC50 under setting [2] was 0.0731 µM [falling, full curve, poor fit].

Regarding `CC(NC(=O)NC1CCCCC1)C(c1cccs1)N1CCN(C)CC1` (stereo not drawn), the cell number change is -27.6%. Besides, the AC50 under setting [2] is 29.1 µM [falling, single point].

For `Cc1cc(NC(=O)COC(=O)C2CC2)ccc1Br`, the cell number change was -39.1%. The AC50 under setting [1] was 23.1 µM [falling, single point]. Under setting [2], the AC50 was 0.58 µM [falling, single point].

As to `COC(=O)/C=C1\N/C(=N\c2nc(C)cc(C)n2)N(c2ccc(C)cc2)C1=O`, the cell number change stood at 20.1%. Under setting [2], the AC50 is 0.461 µM [rising, full curve, poor fit].

In the case of `COc1cccc(CNC(=O)CCC2CCCN(C(=O)c3cc(C4CC4)[nH]n3)C2)c1` (stereo not drawn), the cell number change was -31.4%.

Regarding `CC1=NNC(=O)C1CCC(=O)N/N=C/c1ccco1` (stereo not drawn), the AC50 is 6.51 µM [falling, single point] under setting [1] and 6.51 µM [falling, single point] under setting [2].

Consider `Cc1cc(N(C)C)c(C#N)c(NCc2ccccc2)n1`, for which the cell number change was -30.8%. In addition, the AC50 under setting [1] was 18.4 µM [falling, single point].

For the molecule `CCCOc1ccc2c(CC)cc(=O)oc2c1C`, the cell number change was found to be 28.3%. The AC50 under setting [1] is 6.51 µM [rising, partial curve, poor fit].

Regarding `COc1cccc(NC(=O)CCSc2nnc3scc(-c4ccccc4)n23)c1`, the cell number change amounted to 30.4%. The AC50 under setting [1] is 32.6 µM [rising, single point]. Moreover, the AC50 under setting [2] is 13 µM [rising, partial curve].

Take `COc1ccc(CC(=O)Oc2ccccc2Cl)cc1S(=O)(=O)N1CCOCC1`: the cell number change was -14.5%.

`CC1=C(C(=O)OCCOc2ccccc2)C(c2ccc(C)o2)C2=C(CC(C)(C)CC2=O)N1` (stereo not drawn): the cell number change is -8.25%. For the same molecule, under setting [2], the AC50 was 14.6 µM [falling, partial curve, poor fit].

As for `CCn1cnc2c1c(=O)n(CC(=O)NCC(C)C)c(=O)n2Cc1ccccc1`, the cell number change is -52.8%. The AC50 under setting [1] was 11.6 µM [falling, partial curve]. For the same molecule, the AC50 under setting [2] was 8.2 µM [falling, partial curve].

As for `O=C(N/N=C/c1ccc(Br)s1)c1ccccn1`, the cell number change is -13.6%. The AC50 under setting [1] was 2.06 µM [rising, partial curve]. For the same molecule, the AC50 under setting [2] is 2.06 µM [rising, partial curve].

In the case of `O=C(CN1C(=O)NC2(CCCC2)C1=O)N1CCN(C(=O)c2ccco2)CC1`, the cell number change was determined as 31.1%. The AC50 under setting [1] was 0.00461 µM [rising, full curve, poor fit].

As for `CC(=O)c1ccc(NC(=S)N2c3ccccc3CC2C)cc1` (stereo not drawn), the cell number change was found to be 22.5%. Besides, under setting [2], the AC50 was 1.3 µM [rising, full curve, poor fit].

Consider `COc1ccc(N2C(=O)C3C4C=CC(C4)C3C2=O)c(OC)c1` (stereo not drawn), for which the cell number change is -16.3%.

Take `Cc1ccc(Cn2ccc(NC(=O)c3nc4ncccn4n3)n2)cc1`: the cell number change amounted to 10.3%. Also, the AC50 under setting [1] was 6.51 µM [rising, single point]. Moreover, the AC50 under setting [2] is 18.4 µM [rising, single point].

For `CC1CN(C(=O)CCC(=O)NCCCN2CCN(Cc3ccccc3)CC2)c2cc(Cl)ccc2O1` (stereo not drawn), the cell number change worked out at 60.8%. Moreover, the AC50 under setting [1] was 29.1 µM [rising, single point].

With `Cc1nc(Cl)sc1C(=O)NC(C)c1ccc(Cl)cc1` (stereo not drawn), the cell number change was -6.84%. In addition, the AC50 under setting [2] was 29.1 µM [falling, partial curve, poor fit].

Consider `COc1ccc2c(c1)C(=O)C(=O)N2CC1COc2ccccc2O1` (stereo not drawn), for which the cell number change was -19.9%. Also, under setting [2], the AC50 is 29.1 µM [falling, single point].

For `CSc1cccc(NC(=O)COc2cccc3ccccc23)c1`, under setting [2], the AC50 is 6.51 µM [rising, single point].

For the molecule `CC(=O)CCc1ccc(OCC(O)CNCCOc2ccc(C)cc2)cc1` (stereo not drawn), the cell number change is 19.8%. The AC50 under setting [2] is 29.1 µM [rising, single point].

Regarding `Cc1cccc(OCC(=O)N2CCCc3ccccc32)c1`, the cell number change amounted to 30.7%. Also, the AC50 under setting [1] is 10.3 µM [rising, single point]. Besides, under setting [2], the AC50 is 0.00461 µM [falling, full curve, poor fit].

Consider `O=C(CCn1c(=S)[nH]c2ccccc2c1=O)N1CCCCC1`, for which the cell number change is -62.4%. The AC50 under setting [1] is 18.4 µM [falling, single point]. Moreover, the AC50 under setting [2] was 7.31 µM [falling, partial curve].

As for `Cc1c(Cl)cccc1NC(=S)NCc1cccs1`, the AC50 under setting [1] was 0.731 µM [falling, single point].

`CC(=O)C1C(=O)c2c(cccc2[N+](=O)[O-])C1=Nc1ccccc1C` (stereo not drawn): the cell number change was -18.5%. For the same molecule, under setting [1], the AC50 was 4.11 µM [rising, partial curve]. Also, the AC50 under setting [2] is 3.26 µM [rising, partial curve].

Take `CN(C)S(=O)(=O)c1ccc(NC(=O)CN2CCN(c3ccccn3)CC2)cc1`: the cell number change is -5.67%. Under setting [2], the AC50 is 0.13 µM [rising, full curve, poor fit].

For `N#Cc1ccc(/C=C2\CCCCn3c2nc2cc(C(=O)O)ccc2c3=O)cc1`, the cell number change amounted to 3.95%. Further, the AC50 under setting [2] is 1.12 µM [rising, partial curve].

Turning to `CN(C)CCNc1nc2sc3c(c2c(=O)n1-c1ccccc1)CCCCC3`, the cell number change was found to be 17.3%. In addition, under setting [1], the AC50 is 0.517 µM [falling, full curve, poor fit].

In the case of `O=c1c2ccccc2c(=O)n(Cc2ccccc2)n1Cc1ccccc1`, the cell number change is -2.2%. Also, the AC50 under setting [2] was 3.26 µM [rising, partial curve].

As to `CCn1c(SCC(=O)Nc2nc(C)cs2)nnc1-c1ccncc1`, the cell number change came out at 28.2%. Moreover, the AC50 under setting [2] is 4.11 µM [rising, partial curve, poor fit].

For the molecule `Cc1cc(=O)oc2cc(OCC(=O)Nc3ccccc3C(=O)O)ccc12`, the cell number change stood at 7.69%.

In the case of `COc1ccc(NC(=O)c2cccc3cccnc23)cc1S(N)(=O)=O`, the cell number change worked out at 193%. In addition, the AC50 under setting [1] is 18.4 µM [rising, single point].

Consider `COC(=O)c1cc2occc2n1Cc1c(F)cccc1Cl`, for which the cell number change was -17.7%.

Turning to `Cc1ccc(NC2SC(=O)N(Cc3cccc(C(=O)O)c3)C2=O)cc1` (stereo not drawn), the cell number change was -4.17%. Further, the AC50 under setting [2] is 10.3 µM [falling, partial curve].

In the case of `CCCn1c(SCC(=O)NC2CCCCC2)nnc1-c1ccco1`, the cell number change was found to be 20%. Further, the AC50 under setting [2] was 0.164 µM [falling, full curve, poor fit].

Consider `O=C(CSc1nnnn1-c1ccccc1)NC(=O)NCc1ccco1`, for which the cell number change is 110%. For the same molecule, the AC50 under setting [1] was 20.6 µM [rising, single point].

For the molecule `O=c1c2c(nc3cc(-c4ccc(Cl)cc4)[nH]n13)CCS2`, the AC50 under setting [2] is 2.31 µM [rising, single point].

Take `Cc1ccc(-c2c3c(=O)n(C)c(=O)n(C)c3cn2-n2cnnc2)cc1`: the cell number change is -22%. Further, the AC50 under setting [2] was 25.9 µM [falling, single point].
